From the supplement of paper PMC8728848
The other results are listed elsewhere or left out.

Columns and labels:
Experiment in all cases: glycan array binding signal (z-score within array); higher = stronger binding
Settings in all cases: glycan notation: IUPAC condensed, linker removed
[1] = molecular target: Neu5Ac(a2-6)Gal(b1-4)GlcNAc(b1-2)Man(a1-3)[GlcNAc(b1-2)Man(a1-6)]Man(b1-4)GlcNAc(b1-4)GlcNAc
Outline: (§1)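 Glycan array binding is given as a within-array Z-score, which can be read as non-binding when negative. The arrays, 3228 of them, came from the Consortium for Functional Glycomics database and were retained only where the protein sequence was available. Z-scores were averaged across arrays of the same protein sequence at different concentrations or buffers and across linkers.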

[2] = molecular target: Neu5Ac(a2-6)Gal(b1-4)GlcNAc(b1-2)Man(a1-3)[GlcNAc(b1-2)Man(b1-4)GlcNAc(b1-2)Man(a1-6)]Man(b1-4)GlcNAc(b1-4)GlcNAc
Outline: as §1

[3] = molecular target: Neu5Ac(a2-6)Gal(b1-4)GlcNAc(b1-2)Man(a1-3)[Man(a1-6)]Man(b1-4)GlcNAc(b1-4)GlcNAc
Outline: as §1

[4] = molecular target: Neu5Ac(a2-6)Gal(b1-4)GlcNAc(b1-2)Man(a1-3)[Neu5Ac(a2-6)Gal(b1-4)GlcNAc(b1-2)Man(a1-6)]Man(b1-4)GlcNAc(b1-4)GlcNAc
Outline: as §1

[5] = molecular target: Neu5Ac(a2-6)Gal(b1-4)GlcNAc(b1-2)Man(a1-6)Man(b1-4)GlcNAc(b1-4)GlcNAc
Outline: as §1

[6] = molecular target: Neu5Ac(a2-6)Gal(b1-4)GlcNAc(b1-2)Man(a1-6)[Gal(b1-4)GlcNAc(b1-2)Man(a1-3)]Man(b1-4)GlcNAc(b1-4)GlcNAc
Outline: as §1

[7] = molecular target: Neu5Ac(a2-6)Gal(b1-4)GlcNAc(b1-2)Man(a1-6)[GlcNAc(b1-2)Man(a1-3)]Man(b1-4)GlcNAc(b1-4)GlcNAc
Outline: as §1

[8] = molecular target: Neu5Ac(a2-6)Gal(b1-4)GlcNAc(b1-2)Man(a1-6)[Man(a1-3)]Man(b1-4)GlcNAc(b1-4)GlcNAc
Outline: as §1

[9] = molecular target: Neu5Ac(a2-6)Gal(b1-4)GlcNAc(b1-3)Gal(b1-3)GlcNAc
Outline: as §1

[10] = molecular target: Neu5Ac(a2-6)Gal(b1-4)GlcNAc(b1-3)Gal(b1-4)GlcNAc
Outline: as §1

[11] = molecular target: Neu5Ac(a2-6)Gal(b1-4)GlcNAc(b1-3)Gal(b1-4)GlcNAc(b1-3)Gal(b1-4)GlcNAc
Outline: as §1

[12] = molecular target: Neu5Ac(a2-6)Gal(b1-4)GlcNAc(b1-3)Gal(b1-4)[Fuc(a1-3)]GlcNAc(b1-3)Gal(b1-4)[Fuc(a1-3)]GlcNAc
Outline: as §1

[13] = molecular target: Neu5Ac(a2-6)Gal(b1-4)GlcNAc(b1-3)GalNAc
Outline: as §1

[14] = molecular target: Neu5Ac(a2-6)Gal(b1-4)GlcNAc6S
Outline: as §1

Neu5Ac(a2-6)GalNAc = molecular target: Neu5Ac(a2-6)GalNAc
Outline: as §1

[15] = molecular target: Neu5Ac(a2-6)GalNAc(b1-4)GlcNAc
Outline: as §1

[16] = molecular target: Neu5Ac(a2-6)GlcNAc(b1-4)GlcNAc
Outline: as §1

[17] = molecular target: Neu5Ac(a2-6)GlcNAc(b1-4)GlcNAc(b1-4)GlcNAc
Outline: as §1

Neu5Ac(a2-8)Neu5Ac = molecular target: Neu5Ac(a2-8)Neu5Ac
Outline: as §1

[18] = molecular target: Neu5Ac(a2-8)Neu5Ac(a2-3)Gal(b1-3)GalNAc(b1-4)[Neu5Ac(a2-8)Neu5Ac(a2-3)]Gal(b1-4)Glc
Outline: as §1

[19] = molecular target: Neu5Ac(a2-8)Neu5Ac(a2-3)Gal(b1-4)Glc
Outline: as §1

[20] = molecular target: Neu5Ac(a2-8)Neu5Ac(a2-3)[Gal(b1-3)GalNAc(b1-4)]Gal(b1-4)Glc
Outline: as §1

[21] = molecular target: Neu5Ac(a2-8)Neu5Ac(a2-3)[GalNAc(b1-4)]Gal(b1-4)Glc
Outline: as §1

[22] = molecular target: Neu5Ac(a2-8)Neu5Ac(a2-8)Neu5Ac
Outline: as §1

[23] = molecular target: Neu5Ac(a2-8)Neu5Ac(a2-8)Neu5Ac(a2-3)Gal(b1-4)Glc
Outline: as §1

[24] = molecular target: Neu5Ac(a2-8)Neu5Ac(a2-8)Neu5Ac(a2-3)[GalNAc(b1-4)]Gal(b1-4)Glc
Outline: as §1

[25] = molecular target: Neu5Ac(a2-8)Neu5Ac(a2-8)Neu5Ac(a2-8)Neu5Ac(a2-3)[GalNAc(b1-4)]Gal(b1-4)Glc
Outline: as §1

[26] = molecular target: Neu5Ac(b2-6)Gal(b1-4)GlcNAc
Outline: as §1

Neu5Ac(b2-6)GalNAc = molecular target: Neu5Ac(b2-6)GalNAc
Outline: as §1

[27] = molecular target: Neu5Ac9Ac(a2-3)Gal(b1-3)GlcNAc
Outline: as §1

[28] = molecular target: Neu5Ac9Ac(a2-3)Gal(b1-4)GlcNAc
Outline: as §1

[29] = molecular target: Neu5Ac9Ac(a2-6)Gal(b1-4)GlcNAc
Outline: as §1

[30] = molecular target: Neu5Gc(a2-3)Gal(b1-3)GlcNAc
Outline: as §1

[31] = molecular target: Neu5Gc(a2-3)Gal(b1-3)[Fuc(a1-4)]GlcNAc
Outline: as §1

Neu5Gc(a2-3)Gal(b1-4)Glc = molecular target: Neu5Gc(a2-3)Gal(b1-4)Glc
Outline: as §1

[32] = molecular target: Neu5Gc(a2-3)Gal(b1-4)GlcNAc
Outline: as §1

[33] = molecular target: Neu5Gc(a2-3)Gal(b1-4)[Fuc(a1-3)]GlcNAc
Outline: as §1

[34] = molecular target: Neu5Gc(a2-6)Gal(b1-4)GlcNAc
Outline: as §1

Neu5Gc(a2-6)GalNAc = molecular target: Neu5Gc(a2-6)GalNAc
Outline: as §1

[35] = molecular target: Neu5Gc(b2-6)Gal(b1-4)GlcNAc
Outline: as §1

B1: Eosinophil-derived neurotoxin (EDN) (Homo sapiens), P10153 (protein)
chain: MVPKLFTSQICLLLLLGLLAVEGSLHVKPPQFTWAQWFETQHINMTSQQCTNAMQVINNYQRRCKNQNTFLLTTFANVVNVCGNPNMTCPSNKTRKNCHHSGSQVPLIHCNLTTPSPQNISNCRYAQTPANMFYIVACDNRDQRRDPPQYPVVPVHLDRII
glycan array binding signal (z-score) [1]: -0.101 | glycan array binding signal (z-score) [2]: -0.093 | glycan array binding signal (z-score) [3]: 0.194 | glycan array binding signal (z-score) [4]: -0.253 | glycan array binding signal (z-score) [5]: 0.578 | glycan array binding signal (z-score) [6]: 0.174 | glycan array binding signal (z-score) [7]: 0.737 | glycan array binding signal (z-score) [8]: -0.079 | glycan array binding signal (z-score) [9]: -0.676 | glycan array binding signal (z-score) [10]: 0.023 | glycan array binding signal (z-score) [11]: -0.452 | glycan array binding signal (z-score) [12]: 0.256 | glycan array binding signal (z-score) [13]: 0.04 | glycan array binding signal (z-score) [14]: -0.126 | glycan array binding signal (z-score) (Neu5Ac(a2-6)GalNAc): -0.29 | glycan array binding signal (z-score) [15]: 0.382 | glycan array binding signal (z-score) [16]: -0.497 | glycan array binding signal (z-score) [17]: 0.208 | glycan array binding signal (z-score) (Neu5Ac(a2-8)Neu5Ac): 0.394 | glycan array binding signal (z-score) [18]: -0.783 | glycan array binding signal (z-score) [19]: -0.61 | glycan array binding signal (z-score) [20]: -0.144 | glycan array binding signal (z-score) [21]: 1.66 | glycan array binding signal (z-score) [22]: -0.335 | glycan array binding signal (z-score) [23]: -0.176 | glycan array binding signal (z-score) [24]: -0.121 | glycan array binding signal (z-score) [25]: -1.11 | glycan array binding signal (z-score) [26]: 0.387 | glycan array binding signal (z-score) (Neu5Ac(b2-6)GalNAc): 0.895 | glycan array binding signal (z-score) [27]: -0.207 | glycan array binding signal (z-score) [28]: -0.489 | glycan array binding signal (z-score) [29]: -0.683 | glycan array binding signal (z-score) [30]: 0.306 | glycan array binding signal (z-score) [31]: -0.217 | glycan array binding signal (z-score) (Neu5Gc(a2-3)Gal(b1-4)Glc): -0.261 | glycan array binding signal (z-score) [32]: 0.858 | glycan array binding signal (z-score) [33]: -0.119 | glycan array binding signal (z-score) [34]: 0.944 | glycan array binding signal (z-score) (Neu5Gc(a2-6)GalNAc): 0.524 | glycan array binding signal (z-score) [35]: 0.153
